The text below walks through data of the supplement of paper PMC9938546.

Where a name gives a salt, the structure may show the parent alone. Some of the results follow. Part of the spread comes from offsets between plates or batches.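 HCT116-GFP is a human colorectal cancer cell line that carries a KRAS mutation, is microsatellite-unstable and always makes green fluorescent protein; the immune cells came from healthy donors. Live-cell imaging of the green signal stood in for cancer cell survival, and activated immune cells alone cut survival to about half.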

The assay deals with HCT116-GFP. Put plainly: HCT116-GFP viability (GFP intensity) relative to untreated HCT116-GFP monoculture control, co-culture with activated PBMCs; higher = less cancer cell killing. Particulars: culture: co-culture with anti-CD3/IL2 activated PBMCs 1:1; 10 µM; 72 h.
Turning to `C1CCC(C(CC2CCCCN2)C2CCCCC2)CC1` (configuration not stated) [Perhexiline maleate], the HCT116-GFP viability was determined as 1.55%.

Molecule `CCc1nc(N)nc(N)c1-c1ccc(Cl)cc1` [Pyrimethamine] yielded an HCT116-GFP viability of 41.2%.

As to `CC(=O)[C@@]1(O)CC[C@H]2[C@@H]3C[C@H](C)C4=CC(=O)C=C[C@]4(C)[C@@]3(F)[C@@H](O)C[C@@]21C` [Fluorometholone], the HCT116-GFP viability is 94.9%.

For the molecule `CC(C)NCC(O)COc1ccc(CCOCC2CC2)cc1` (configuration not stated) [Betaxolol hydrochloride], the HCT116-GFP viability worked out at 50.5%.

In the case of `C[C@H]1c2cccc(O)c2C(=O)C2=C(O)[C@]3(O)C(=O)C(C(N)=O)=C(O)[C@@H](N(C)C)[C@@H]3[C@@H](O)[C@@H]21` [Doxycycline hydrochloride], the HCT116-GFP viability was 36.4%.

`CCCC1C(=O)N2C(N(C)C)=Nc3ccc(C)cc3N2C1=O` (configuration not stated) [Azapropazone] displayed an HCT116-GFP viability of 21.7%.

`Clc1ccc(C(Cn2ccnc2)OCc2ccsc2Cl)c(Cl)c1` (configuration not stated) [Tioconazole] returned an HCT116-GFP viability of 34.4%.

With `C[C@](N)(Cc1ccc(O)c(O)c1)C(=O)O` [Methyldopa (L,-)], the HCT116-GFP viability was found to be 55.7%.

The molecule `c1cnc(N2CCN(Cc3ccc4c(c3)OCO4)CC2)nc1` [Piribedil hydrochloride] yielded an HCT116-GFP viability of 33.1%.

Regarding `CCOC(=O)O[C@]1(C(=O)OCCl)CC[C@H]2[C@@H]3CCC4=CC(=O)C=C[C@]4(C)[C@H]3[C@@H](O)C[C@@]21C` [Loteprednol etabonate], the HCT116-GFP viability was 92.2%.

For `Cc1ccc(NC(=O)c2ccc(CN3CCN(C)CC3)cc2)cc1Nc1nccc(-c2cccnc2)n1` [Imatinib], the HCT116-GFP viability was 56.4%.

Regarding `CN[C@@H]1[C@H](O)[C@H](NC)[C@H]2O[C@@]3(O)C(=O)C[C@@H](C)O[C@H]3O[C@@H]2[C@H]1O` [Spectinomycin dihydrochloride], the HCT116-GFP viability was found to be 70.6%.

Take `NS(=O)(=O)c1cc2c(cc1Cl)NC(C(Cl)Cl)NS2(=O)=O` (configuration not stated) [Trichlormethiazide]: the HCT116-GFP viability was 64%.

As for `C#Cc1cccc(Nc2ncnc3cc(OCCOC)c(OCCOC)cc23)c1` [Erlotinib], the HCT116-GFP viability was found to be 15.4%.

`Cc1onc(-c2ccccc2Cl)c1C(=O)N[C@@H]1C(=O)N2[C@@H]1SC(C)(C)[C@@H]2C(=O)O` [Cloxacillin sodium salt] returned an HCT116-GFP viability of 44.6%.

The molecule `N[C@@H](C(=O)N[C@@H]1C(=O)N2C(C(=O)O)=C(Cl)CC[C@H]12)c1ccccc1` [Loracarbef] yielded an HCT116-GFP viability of 30.8%.

`CC(C)Nc1cccnc1N1CCN(C(=O)c2cc3cc(NS(C)(=O)=O)ccc3[nH]2)CC1` [Delavirdine] returned an HCT116-GFP viability of 45.8%.

The molecule `CN[C@@H]1[C@@H](O[C@H]2O[C@H](CO)[C@@H](N)[C@H](O)[C@H]2O)OC2C[C@@H](N)[C@@H](O[C@H]3[C@H](O)[C@@H](O)[C@H](N)C[C@@H]3N)OC2[C@@H]1O` (some centres not stated) [Apramycin] showed an HCT116-GFP viability of 27.9%.

Molecule `Cc1c(-c2ccccc2)oc2c(C(=O)OCCN3CCCCC3)cccc2c1=O` [Flavoxate hydrochloride] displayed an HCT116-GFP viability of 46.2%.

For `CCOc1ccc2ccccc2c1C(=O)N[C@@H]1C(=O)N2[C@@H]1SC(C)(C)[C@@H]2C(=O)O` [Nafcillin sodium salt monohydrate], the HCT116-GFP viability was 81.1%.

As to `CC(C)(CO)C(O)C(=O)NCCCO` (configuration not stated) [Panthenol (D)], the HCT116-GFP viability was determined as 30.8%.

Molecule `CN(C)C/C=C(/c1ccc(Br)cc1)c1cccnc1` [Zimelidine dihydrochloride monohydrate] registered an HCT116-GFP viability of 35.8%.

In turn, `CCN(CC)CCNC(=O)c1cc(Cl)c(N)cc1OC` [Metoclopramide monohydrochloride] showed an HCT116-GFP viability of 35.2%.

For `Cn1cnc2c1c(=O)[nH]c(=O)n2C` [Theobromine], the HCT116-GFP viability came to 75.7%.

In turn, `CCC[C@@H]1C[C@@H](C(=O)N[C@@H]([C@H]2O[C@H](SC)[C@H](O)[C@@H](O)[C@H]2O)[C@H](C)Cl)N(C)C1` [Clindamycin hydrochloride] gave an HCT116-GFP viability of 30.7%.

In turn, `O=C(N[C@H](CO)[C@H](O)c1ccc([N+](=O)[O-])cc1)C(Cl)Cl` [Chloramphenicol] returned an HCT116-GFP viability of 53.4%.

As to `Cc1ccc2c(c1)c1c3n2CCNC3CCC1` (configuration not stated) [Pirlindole mesylate], the HCT116-GFP viability amounted to 48%.

Molecule `C=C1/C(=C\C=C2/CCC[C@]3(C)[C@@H]([C@H](C)CCCC(C)C)CC[C@@H]23)C[C@@H](O)C[C@@H]1O` [Alfacalcidol] returned an HCT116-GFP viability of 43.3%.

As to `CC(C)[N+](C)(CCOC(=O)C1c2ccccc2Oc2ccccc21)C(C)C` [Propantheline bromide], the HCT116-GFP viability amounted to 66.7%.

`CN(C)CCC=C1c2ccccc2COc2ccccc21` [Doxepin hydrochloride] came in with an HCT116-GFP viability of 50.9%.

Consider `Nc1ccccc1S(N)(=O)=O` [2-Aminobenzenesulfonamide], for which the HCT116-GFP viability is 75%.

As to `COc1ccccc1Oc1c(NS(=O)(=O)c2ccc(C(C)(C)C)cc2)nc(-c2ncccn2)nc1OCCO` [Bosentan], the HCT116-GFP viability stood at 38.4%.

`COc1ccccc1OCC(O)CO` (configuration not stated) [Guaifenesin] gave an HCT116-GFP viability of 71.6%.

On to `NC[C@@H]1O[C@H](O[C@H]2[C@@H](O)[C@H](O[C@@H]3[C@@H](O)[C@H](N)C[C@H](N)[C@H]3O[C@H]3O[C@H](CO)[C@@H](O)[C@H](O)[C@H]3N)O[C@@H]2CO)[C@H](N)[C@@H](O)[C@@H]1O` [Paromomycin sulfate], for which the HCT116-GFP viability came out at 85.1%.

`Nc1nc(CC(=O)Nc2ccc(CCNC[C@H](O)c3ccccc3)cc2)cs1` [Mirabegron] registered an HCT116-GFP viability of 69.6%.

As to `CC(=O)[C@H]1CC[C@H]2[C@@H]3C=CC4=CC(=O)CC[C@@]4(C)[C@@H]3CC[C@]12C` [Dydrogesterone], the HCT116-GFP viability amounted to 80%.

The molecule `CN1[C@@H]2CC[C@H]1C[C@@H](OC(=O)c1c[nH]c3ccccc13)C2` [Tropisetron hydrochloride] yielded an HCT116-GFP viability of 69.2%.

With `Cc1cccc(C)c1OCC(C)N` (configuration not stated) [Mexiletine hydrochloride], the HCT116-GFP viability came out at 53.1%.

`N#Cc1cc(NC(=O)C(=O)O)c(Cl)c(NC(=O)C(=O)O)c1` [Lodoxamide] returned an HCT116-GFP viability of 39.6%.

For `COc1ccc(/C=C/C(=O)Nc2ccccc2C(=O)O)cc1OC` [Tranilast], the HCT116-GFP viability was 56.5%.

The molecule `CCOC(=O)C1=C(COCCN)NC(C)=C(C(=O)OC)C1c1ccccc1Cl` (configuration not stated) [Amlodipine] had an HCT116-GFP viability of 37.8%.

Take `Cc1c(N(C)C)c(=O)n(-c2ccccc2)n1C` [Amidopyrine]: the HCT116-GFP viability was determined as 46.4%.

`Oc1c(Cl)cc(Cl)c(Cl)c1Cc1c(O)c(Cl)cc(Cl)c1Cl` [Hexachlorophene] yielded an HCT116-GFP viability of 18.4%.

As for `Cc1cccc(C)c1NC(=O)C(C)N` (configuration not stated) [Tocainide hydrochloride], the HCT116-GFP viability was found to be 37.3%.

As to `CCCCc1cc2ccccc2c(OCCN(C)C)n1` [Dimethisoquin hydrochloride], the HCT116-GFP viability is 99.4%.

`CC(C(=O)O)c1ccc2c(c1)[nH]c1ccc(Cl)cc12` (configuration not stated) [Carprofen] registered an HCT116-GFP viability of 36.2%.

Consider `CN(C)C(=O)C(CCN1CCC(O)(c2ccc(Cl)cc2)CC1)(c1ccccc1)c1ccccc1` [Loperamide hydrochloride], for which the HCT116-GFP viability was found to be 35.7%.

Consider `CC(C(=O)O)c1ccc(-c2ccccc2)c(F)c1` (configuration not stated) [Flurbiprofen], for which the HCT116-GFP viability amounted to 70.5%.

As to `O=C(OCC(O)CO)c1ccccc1Nc1ccnc2cc(Cl)ccc12` (configuration not stated) [Glafenine hydrochloride], the HCT116-GFP viability stood at 70.4%.

Take `C[C@H]1O[C@@H](O[C@H]2[C@@H](O)C[C@H](O[C@H]3[C@@H](O)C[C@H](O[C@H]4CC[C@@]5(C)[C@H](CC[C@@H]6[C@@H]5C[C@@H](O)[C@]5(C)[C@@H](C7=CC(=O)OC7)CC[C@]65O)C4)O[C@@H]3C)O[C@@H]2C)C[C@H](O)[C@@H]1O` [Digoxin]: the HCT116-GFP viability was 0.219%.

The molecule `COc1cc([S+](C)[O-])ccc1-c1nc2cccnc2[nH]1` (configuration not stated) [Sulmazole] showed an HCT116-GFP viability of 63.8%.

The molecule `C(=C\c1ccccc1)/CN1CCN(C(c2ccccc2)c2ccccc2)CC1` [Cinnarizine] returned an HCT116-GFP viability of 62%.

For `O=C(C1CCCCC1)N1CC(=O)N2CCc3ccccc3C2C1` (configuration not stated) [Praziquantel], the HCT116-GFP viability amounted to 31.5%.

`COc1ccc2c(c1)c(CC(=O)O)c(C)n2C(=O)c1ccc(Cl)cc1` [Indomethacin] showed an HCT116-GFP viability of 41.2%.

The molecule `CN1CCC(=C2c3ccccc3CCc3cccnc32)CC1` [Azatadine maleate] showed an HCT116-GFP viability of 58%.

For the molecule `Nc1nc2ccc(OC(F)(F)F)cc2s1` [Riluzole hydrochloride], the HCT116-GFP viability came to 37.4%.

Take `C=C1c2c(Cl)ccc(O)c2C(=O)C2=C(O)[C@]3(O)C(=O)C(C(N)=O)=C(O)[C@@H](N(C)C)[C@@H]3[C@@H](O)[C@H]12.O=C(O)c1cc(S(=O)(=O)O)ccc1O` [Meclocycline sulfosalicylate]: the HCT116-GFP viability worked out at 23.8%.

As for `CC(C)(C)NCC(O)COc1cccc2c1CCC(=O)N2` (configuration not stated) [Carteolol hydrochloride], the HCT116-GFP viability is 50.2%.

In turn, `CC(=O)NCCCS(=O)(=O)O` [Acamprosate calcium] displayed an HCT116-GFP viability of 40.5%.

In the case of `CCOC(=O)O[C@]1(C(=O)COC(=O)CC)CC[C@H]2[C@@H]3CCC4=CC(=O)C=C[C@]4(C)[C@H]3[C@@H](O)C[C@@]21C` [Prednicarbate], the HCT116-GFP viability came out at 52.8%.

`CC[C@H](C)[C@H](N)C1=N[C@H](C(=O)N[C@@H](CC(C)C)C(=O)N[C@H](CCC(=O)O)C(=O)N[C@H](C(=O)N[C@H]2CCCCNC(=O)[C@H](CC(N)=O)NC(=O)[C@@H](CC(=O)O)NC(=O)[C@H](Cc3cnc[nH]3)NC(=O)[C@@H](Cc3ccccc3)NC(=O)[C@H]([C@@H](C)CC)NC(=O)[C@@H](CCCN)NC2=O)[C@@H](C)CC)CS1` [Bacitracin]: the HCT116-GFP viability amounted to 73.7%.

In turn, `COc1ccc(OC)c(C(O)CNC(=O)CN)c1` (configuration not stated) [Midodrine hydrochloride] gave an HCT116-GFP viability of 22.8%.

Regarding `CN(C)CCN1C(=O)c2ccccc2N(C)c2ccccc21` [Dibenzepine hydrochloride], the HCT116-GFP viability turned out to be 59.6%.

As to `CN1CCN(CCCN2c3ccccc3Sc3ccc(C(F)(F)F)cc32)CC1` [Trifluoperazine dihydrochloride], the HCT116-GFP viability was 38%.

Molecule `Nc1ccn([C@H]2CC[C@@H](CO)O2)c(=O)n1` [Zalcitabine] came in with an HCT116-GFP viability of 45.5%.

Molecule `CN(C(=O)C(Cl)Cl)c1ccc(OC(=O)c2ccco2)cc1` [Diloxanide furoate] registered an HCT116-GFP viability of 68.8%.

In the case of `CN(C)CCOC(C)(c1ccccc1)c1ccccn1` (configuration not stated) [Doxylamine succinate], the HCT116-GFP viability came out at 27.5%.
